For at least one compound, name, drawing or mass did not settle the structure.
Target: 40kD protease (Corynebacterium pseudotuberculosis, UniProt Q46160)
Format: biochemical, C. pseudotuberculosis

## NCCc1ccc(S(=O)(=O)F)cc1 [pefa-block]
  40KD PROTEASE ACTIVITY: -

Source: US5650154A (priority 1989, dated 1997)
